Data taken from patent US8202995B2, “Pharmaceutically acceptable salts of aporphine derivatives and carboxyl group-containing agents and methods for preparing the same” (Standard Chem. & Pharm. Co., Ltd., priority 2008, dated 2012).
Some of these results come from one statement about several compounds together.

Test: Free radical scavenging of 1,1-diphenyl-2-picryl-hydrazyl (DPPH)
Format: biochemical
Details: DPPH 100 μM, 30 min, absorbance at 517 nm, FIG. 1
Experimental: After 30 min, the absorbance (O.D.) was monitored spectrophotometrically at 517 nm. The activity in inhibiting free radical DPPH results in the decrease of absorbance.

SMILES | concentration at which activity in free radical scavenging of DPPH is exhibited
COc1cc2c(cc1OC)-c1c(O)c(OC)cc3c1C(C2)N(CC(O)COc1ccccc1OC)CC3 (centres unmarked) [Compound 1] | higher than 10^−5 M
COc1cc2c(cc1OC)-c1c(O)c(OC)cc3c1C(C2)N(CC(=O)Nc1c(C)cccc1C)CC3 (centres unmarked) [Compound 2] | higher than 10^−5 M
